From the supplement of paper PMC10849652
Some of the results follow.

Sequences of proteins named here, by UniProt entry; tags and fusion partners are left off. A change or cut given only in a name is not applied to a line headed by its entry.
UniProt Q15154: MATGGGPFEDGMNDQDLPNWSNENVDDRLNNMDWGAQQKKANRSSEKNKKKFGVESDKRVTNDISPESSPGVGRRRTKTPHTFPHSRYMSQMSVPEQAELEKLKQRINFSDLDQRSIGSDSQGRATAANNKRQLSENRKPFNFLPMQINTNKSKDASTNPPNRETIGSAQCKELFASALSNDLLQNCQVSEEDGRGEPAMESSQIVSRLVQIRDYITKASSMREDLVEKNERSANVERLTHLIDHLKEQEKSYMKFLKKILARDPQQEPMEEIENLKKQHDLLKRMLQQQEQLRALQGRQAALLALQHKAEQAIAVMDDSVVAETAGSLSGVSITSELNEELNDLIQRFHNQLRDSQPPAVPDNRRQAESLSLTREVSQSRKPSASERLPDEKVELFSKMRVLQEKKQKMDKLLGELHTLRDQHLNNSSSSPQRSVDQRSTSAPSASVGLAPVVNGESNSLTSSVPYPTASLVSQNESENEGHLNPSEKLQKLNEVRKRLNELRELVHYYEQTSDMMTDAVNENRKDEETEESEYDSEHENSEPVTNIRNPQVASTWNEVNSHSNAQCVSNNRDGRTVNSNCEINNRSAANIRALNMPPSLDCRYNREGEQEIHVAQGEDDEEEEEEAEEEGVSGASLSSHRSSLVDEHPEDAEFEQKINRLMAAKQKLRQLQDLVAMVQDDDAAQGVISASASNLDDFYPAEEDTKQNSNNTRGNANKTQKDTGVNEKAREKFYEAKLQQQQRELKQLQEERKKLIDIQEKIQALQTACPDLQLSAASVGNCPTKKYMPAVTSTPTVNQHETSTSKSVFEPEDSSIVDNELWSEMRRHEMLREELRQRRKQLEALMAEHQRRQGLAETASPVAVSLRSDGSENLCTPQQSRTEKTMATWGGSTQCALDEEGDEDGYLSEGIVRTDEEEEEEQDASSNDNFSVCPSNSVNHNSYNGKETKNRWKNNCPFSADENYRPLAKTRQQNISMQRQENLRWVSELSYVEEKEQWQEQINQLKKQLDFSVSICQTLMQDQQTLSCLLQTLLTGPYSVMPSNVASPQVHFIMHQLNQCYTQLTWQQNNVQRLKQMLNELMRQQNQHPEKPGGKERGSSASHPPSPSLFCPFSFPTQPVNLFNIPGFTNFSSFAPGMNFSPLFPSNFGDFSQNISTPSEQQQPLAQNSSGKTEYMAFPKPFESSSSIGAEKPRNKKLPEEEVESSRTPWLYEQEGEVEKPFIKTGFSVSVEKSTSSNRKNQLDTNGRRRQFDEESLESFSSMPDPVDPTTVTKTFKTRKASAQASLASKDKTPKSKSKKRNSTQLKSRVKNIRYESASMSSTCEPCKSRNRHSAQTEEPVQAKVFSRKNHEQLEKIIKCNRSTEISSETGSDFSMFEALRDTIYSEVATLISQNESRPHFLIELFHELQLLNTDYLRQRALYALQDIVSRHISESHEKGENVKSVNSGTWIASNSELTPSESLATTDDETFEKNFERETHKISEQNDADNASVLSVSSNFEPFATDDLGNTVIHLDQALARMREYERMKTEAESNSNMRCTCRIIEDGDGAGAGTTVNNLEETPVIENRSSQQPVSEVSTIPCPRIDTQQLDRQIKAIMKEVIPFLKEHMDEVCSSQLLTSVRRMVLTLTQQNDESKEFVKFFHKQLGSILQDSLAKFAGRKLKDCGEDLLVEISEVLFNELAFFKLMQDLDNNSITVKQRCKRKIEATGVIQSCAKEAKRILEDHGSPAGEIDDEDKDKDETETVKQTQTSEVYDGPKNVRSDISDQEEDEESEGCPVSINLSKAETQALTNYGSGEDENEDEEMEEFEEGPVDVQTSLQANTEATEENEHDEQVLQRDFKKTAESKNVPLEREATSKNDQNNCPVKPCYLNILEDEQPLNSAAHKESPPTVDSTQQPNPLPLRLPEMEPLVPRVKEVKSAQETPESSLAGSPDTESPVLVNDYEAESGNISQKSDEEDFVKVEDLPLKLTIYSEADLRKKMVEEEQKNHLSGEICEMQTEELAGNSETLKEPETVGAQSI
UniProt O75340: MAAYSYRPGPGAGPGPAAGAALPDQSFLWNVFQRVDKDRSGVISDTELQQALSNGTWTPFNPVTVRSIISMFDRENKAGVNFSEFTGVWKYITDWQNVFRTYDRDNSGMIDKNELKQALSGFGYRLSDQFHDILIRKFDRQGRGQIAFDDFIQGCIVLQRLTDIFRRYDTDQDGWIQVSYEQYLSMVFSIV
UniProt P30086: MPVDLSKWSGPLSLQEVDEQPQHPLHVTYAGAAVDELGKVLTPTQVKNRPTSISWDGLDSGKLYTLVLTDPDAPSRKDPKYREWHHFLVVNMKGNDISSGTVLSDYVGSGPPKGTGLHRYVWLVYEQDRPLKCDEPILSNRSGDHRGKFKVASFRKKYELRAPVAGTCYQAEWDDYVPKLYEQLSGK
UniProt Q9HBI1: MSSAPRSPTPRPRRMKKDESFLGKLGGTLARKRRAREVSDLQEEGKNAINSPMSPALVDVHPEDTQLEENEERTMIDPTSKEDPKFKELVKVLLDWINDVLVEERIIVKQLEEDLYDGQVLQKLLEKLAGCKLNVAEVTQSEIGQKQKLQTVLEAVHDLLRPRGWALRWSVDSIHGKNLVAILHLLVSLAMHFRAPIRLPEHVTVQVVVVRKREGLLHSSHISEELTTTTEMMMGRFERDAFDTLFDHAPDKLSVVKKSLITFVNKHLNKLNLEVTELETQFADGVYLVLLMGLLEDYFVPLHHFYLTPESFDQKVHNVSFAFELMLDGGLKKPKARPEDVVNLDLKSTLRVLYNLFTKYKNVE
UniProt O60829: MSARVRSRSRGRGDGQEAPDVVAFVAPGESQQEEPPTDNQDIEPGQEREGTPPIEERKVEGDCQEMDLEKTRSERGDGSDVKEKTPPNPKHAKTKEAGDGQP
UniProt Q8NBP7, whole entry, looked up: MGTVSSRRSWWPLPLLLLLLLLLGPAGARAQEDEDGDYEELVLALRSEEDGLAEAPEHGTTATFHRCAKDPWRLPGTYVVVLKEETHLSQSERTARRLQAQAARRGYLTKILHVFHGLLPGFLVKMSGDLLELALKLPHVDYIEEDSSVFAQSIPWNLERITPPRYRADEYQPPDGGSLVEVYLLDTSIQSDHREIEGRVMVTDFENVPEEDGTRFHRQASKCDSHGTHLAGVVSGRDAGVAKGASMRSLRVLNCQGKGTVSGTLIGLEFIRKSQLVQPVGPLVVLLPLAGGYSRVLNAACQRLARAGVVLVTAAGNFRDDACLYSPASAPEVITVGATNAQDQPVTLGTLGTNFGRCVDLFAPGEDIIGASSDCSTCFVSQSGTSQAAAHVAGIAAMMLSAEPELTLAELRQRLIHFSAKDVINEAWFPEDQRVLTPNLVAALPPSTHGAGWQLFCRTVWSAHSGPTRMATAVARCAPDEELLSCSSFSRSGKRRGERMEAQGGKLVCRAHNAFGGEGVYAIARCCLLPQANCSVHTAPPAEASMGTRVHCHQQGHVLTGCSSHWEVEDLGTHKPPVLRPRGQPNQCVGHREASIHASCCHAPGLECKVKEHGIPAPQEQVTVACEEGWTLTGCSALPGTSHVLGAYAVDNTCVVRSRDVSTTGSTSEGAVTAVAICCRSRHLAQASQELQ
UniProt Q13310, whole entry, looked up: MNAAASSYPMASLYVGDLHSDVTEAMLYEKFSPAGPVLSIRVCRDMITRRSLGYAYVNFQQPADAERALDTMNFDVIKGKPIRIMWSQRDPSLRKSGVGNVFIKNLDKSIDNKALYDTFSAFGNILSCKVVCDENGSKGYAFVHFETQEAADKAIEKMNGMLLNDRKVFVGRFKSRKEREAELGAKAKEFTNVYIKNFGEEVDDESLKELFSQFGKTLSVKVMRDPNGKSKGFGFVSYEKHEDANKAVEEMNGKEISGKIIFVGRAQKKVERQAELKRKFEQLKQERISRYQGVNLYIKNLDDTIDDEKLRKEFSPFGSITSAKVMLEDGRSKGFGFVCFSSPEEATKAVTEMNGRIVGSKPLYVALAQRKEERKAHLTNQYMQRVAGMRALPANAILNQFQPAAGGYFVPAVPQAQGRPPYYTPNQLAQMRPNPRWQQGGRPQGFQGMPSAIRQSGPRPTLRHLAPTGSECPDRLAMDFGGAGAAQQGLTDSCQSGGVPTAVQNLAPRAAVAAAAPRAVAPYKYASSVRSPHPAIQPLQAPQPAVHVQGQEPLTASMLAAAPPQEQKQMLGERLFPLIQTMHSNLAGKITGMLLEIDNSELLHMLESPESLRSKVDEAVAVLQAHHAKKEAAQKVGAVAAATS
UniProt O43924: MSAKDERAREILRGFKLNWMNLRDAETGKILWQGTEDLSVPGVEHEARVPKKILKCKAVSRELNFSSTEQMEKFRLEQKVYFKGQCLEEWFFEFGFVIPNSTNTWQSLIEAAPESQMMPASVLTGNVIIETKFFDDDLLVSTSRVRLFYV
UniProt Q9BTK6, whole entry, looked up: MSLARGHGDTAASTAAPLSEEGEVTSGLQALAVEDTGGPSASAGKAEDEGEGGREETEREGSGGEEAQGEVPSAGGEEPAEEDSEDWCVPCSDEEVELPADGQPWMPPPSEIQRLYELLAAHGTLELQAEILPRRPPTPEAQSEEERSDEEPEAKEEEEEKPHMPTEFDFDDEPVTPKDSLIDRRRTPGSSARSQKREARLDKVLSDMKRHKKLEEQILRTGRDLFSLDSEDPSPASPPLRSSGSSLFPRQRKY

Columns and labels:
Assay in all cases: log2 fold change, soluble protein after heating vs DMSO (PISA); higher = thermal stabilisation; K562 cells, 10 uM, 30 min; active = over 0.2 and 3.5 SD of the protein, either way, in both replicates (recomputed)
bafetinib = compound: Cc1ccc(NC(=O)c2ccc(CN3CC[C@H](N(C)C)C3)c(C(F)(F)F)c2)cc1Nc1nccc(-c2cncnc2)n1 [bafetinib]
Method in brief: (§1)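 Soluble protein was defined as the supernatant after 21,000xg for 90 min. It came from K562 cells at 2×10^6 cells/mL given 10 μM compound for 30 min, heated in aliquots for 3 min across 48°C-58°C, pooled, and extracted in PBS with 0.5% NP-40 at 4°C, and was quantified by TMTpro 16plex LC-MS/MS with equalised channel sums. Thermal stability against control samples, from duplicates, is reported as log2 fold change.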

[1] = compound: Cc1cccc(CC(=O)N2CCc3c2ccc(-c2cn(C)c4ncnc(N)c24)c3F)n1
Method in brief: as §1

nilotinib = compound: Cc1cn(-c2cc(NC(=O)c3ccc(C)c(Nc4nccc(-c5cccnc5)n4)c3)cc(C(F)(F)F)c2)cn1 [nilotinib]
Method in brief: as §1

[2] = compound: Cc1nc(Nc2n[nH]c3c2CN(C(=O)N[C@H](CN(C)C)c2ccccc2)C3(C)C)c2sccc2n1
Method in brief: as §1

dasatinib = compound: Cc1nc(Nc2ncc(C(=O)Nc3c(C)cccc3Cl)s2)cc(N2CCN(CCO)CC2)n1 [dasatinib]
Method in brief: as §1

[3] = compound: Cc1ncc(-c2ccnc(Nc3ccc(S(C)(=O)=O)cc3)n2)n1C(C)C
Method in brief: as §1

[4] = compound: Cn1cc(-c2ccc3c(c2)CCN3C(=O)Cc2cccc(C(F)(F)F)c2)c2c(N)ncnc21
Method in brief: as §1

[5] = compound: Cn1cc(-c2ccc3nnc(C(F)(F)c4ccc5ncccc5c4)n3n2)cn1
Method in brief: as §1

tipifarnib = compound: Cn1cncc1[C@@](N)(c1ccc(Cl)cc1)c1ccc2c(c1)c(-c1cccc(Cl)c1)cc(=O)n2C [tipifarnib]
Method in brief: as §1

mubritinib = compound: FC(F)(F)c1ccc(/C=C/c2nc(COc3ccc(CCCCn4ccnn4)cc3)co2)cc1 [mubritinib]
Method in brief: as §1

Measured: log2 fold change

PCM1 isoform 5 (UniProt Q15154)
inactive: bafetinib -0.008 | [1] 0.004 | nilotinib -0.202 | [2] -0.033 | dasatinib 0.019 | [3] -0.056 | [4] -0.19 | [5] -0.089 | tipifarnib 0.049 | mubritinib -0.11

PDCD6 (UniProt O75340)
inactive: bafetinib -0.11 | [1] -0.005 | nilotinib -0.071 | [2] 0.042 | dasatinib -0.021 | [3] -0.026 | [4] 0.027 | [5] 0.022 | tipifarnib -0.034 | mubritinib 0.009

PEBP1 (UniProt P30086)
inactive: bafetinib -0.043 | [1] -0.003 | nilotinib 0.02 | [2] -0.004 | dasatinib 0.039 | [3] 0.005 | [4] 0.014 | [5] 0.049 | tipifarnib -0.016 | mubritinib 0.018

PARVB (UniProt Q9HBI1)
inactive: bafetinib -0.028 | [1] 0.031 | nilotinib -0.039 | [2] -0.042 | dasatinib -0.197 | [3] -0.011 | [4] 0.019 | [5] 0.014 | tipifarnib -0.046 | mubritinib 0.075

PAGE4 (UniProt O60829)
inactive: bafetinib -0.488 | [1] -0.289 | nilotinib -0.06 | [2] 0.005 | [3] -0.094 | [4] -0.095 | [5] -0.166 | mubritinib 0.071

PCSK9 (UniProt Q8NBP7)
inactive: bafetinib 0.057 | [1] -0.057 | nilotinib 0.069 | [2] -0.067 | [3] -0.01 | [4] 0.011 | [5] -0.023 | tipifarnib 0.061 | mubritinib -0.077

PABPC4 isoform 3 (UniProt Q13310)
inactive: bafetinib 0.024 | [1] -0.018 | nilotinib -0.041 | [2] -0.029 | dasatinib 0.038 | [3] -0.01 | [4] -0.124 | [5] -0.081 | tipifarnib 0.041 | mubritinib -0.009

PDE6D (UniProt O43924)
inactive: bafetinib 0.266 | [1] 0.169 | nilotinib 0.191 | [2] -0.238 | dasatinib 0.026 | [3] 0.011 | [4] 0.385 | mubritinib 0.565

2 consecutive records from above:
PABPC4 isoform 3 (UniProt Q13310)
inactive: bafetinib 0.024 | [1] -0.018 | nilotinib -0.041 | [2] -0.029 | dasatinib 0.038 | [3] -0.01 | [4] -0.124 | [5] -0.081 | tipifarnib 0.041 | mubritinib -0.009

PDE6D (UniProt O43924)
inactive: bafetinib 0.266 | [1] 0.169 | nilotinib 0.191 | [2] -0.238 | dasatinib 0.026 | [3] 0.011 | [4] 0.385 | mubritinib 0.565

More records follow.

PAGR1 (UniProt Q9BTK6)
inactive: bafetinib 0.118 | [1] 0 | nilotinib 0.011 | [2] -0.018 | dasatinib 0.011 | [3] 0.037 | [4] -0.041 | [5] 0.005 | tipifarnib -0.145 | mubritinib 0.015
